# Measurements reported in the supplement of paper PMC10849652.
# The chains behind the UniProt entries cited, without tags or fusion partners. Where a name states a change or a piece, a line headed by the entry shows the natural chain unless it says otherwise.
# UniProt P09104, whole entry, looked up: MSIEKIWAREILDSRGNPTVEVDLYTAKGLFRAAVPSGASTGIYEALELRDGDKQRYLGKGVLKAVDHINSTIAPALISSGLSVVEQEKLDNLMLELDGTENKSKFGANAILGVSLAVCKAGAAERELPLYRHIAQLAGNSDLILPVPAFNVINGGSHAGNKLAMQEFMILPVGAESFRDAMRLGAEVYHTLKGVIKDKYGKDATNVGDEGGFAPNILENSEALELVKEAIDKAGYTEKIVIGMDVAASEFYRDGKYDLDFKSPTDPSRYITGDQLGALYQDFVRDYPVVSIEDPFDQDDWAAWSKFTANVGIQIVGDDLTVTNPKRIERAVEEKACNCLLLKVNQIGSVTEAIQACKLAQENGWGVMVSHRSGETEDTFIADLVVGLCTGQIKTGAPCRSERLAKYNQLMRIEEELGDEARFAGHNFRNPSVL
# UniProt Q9H9B1: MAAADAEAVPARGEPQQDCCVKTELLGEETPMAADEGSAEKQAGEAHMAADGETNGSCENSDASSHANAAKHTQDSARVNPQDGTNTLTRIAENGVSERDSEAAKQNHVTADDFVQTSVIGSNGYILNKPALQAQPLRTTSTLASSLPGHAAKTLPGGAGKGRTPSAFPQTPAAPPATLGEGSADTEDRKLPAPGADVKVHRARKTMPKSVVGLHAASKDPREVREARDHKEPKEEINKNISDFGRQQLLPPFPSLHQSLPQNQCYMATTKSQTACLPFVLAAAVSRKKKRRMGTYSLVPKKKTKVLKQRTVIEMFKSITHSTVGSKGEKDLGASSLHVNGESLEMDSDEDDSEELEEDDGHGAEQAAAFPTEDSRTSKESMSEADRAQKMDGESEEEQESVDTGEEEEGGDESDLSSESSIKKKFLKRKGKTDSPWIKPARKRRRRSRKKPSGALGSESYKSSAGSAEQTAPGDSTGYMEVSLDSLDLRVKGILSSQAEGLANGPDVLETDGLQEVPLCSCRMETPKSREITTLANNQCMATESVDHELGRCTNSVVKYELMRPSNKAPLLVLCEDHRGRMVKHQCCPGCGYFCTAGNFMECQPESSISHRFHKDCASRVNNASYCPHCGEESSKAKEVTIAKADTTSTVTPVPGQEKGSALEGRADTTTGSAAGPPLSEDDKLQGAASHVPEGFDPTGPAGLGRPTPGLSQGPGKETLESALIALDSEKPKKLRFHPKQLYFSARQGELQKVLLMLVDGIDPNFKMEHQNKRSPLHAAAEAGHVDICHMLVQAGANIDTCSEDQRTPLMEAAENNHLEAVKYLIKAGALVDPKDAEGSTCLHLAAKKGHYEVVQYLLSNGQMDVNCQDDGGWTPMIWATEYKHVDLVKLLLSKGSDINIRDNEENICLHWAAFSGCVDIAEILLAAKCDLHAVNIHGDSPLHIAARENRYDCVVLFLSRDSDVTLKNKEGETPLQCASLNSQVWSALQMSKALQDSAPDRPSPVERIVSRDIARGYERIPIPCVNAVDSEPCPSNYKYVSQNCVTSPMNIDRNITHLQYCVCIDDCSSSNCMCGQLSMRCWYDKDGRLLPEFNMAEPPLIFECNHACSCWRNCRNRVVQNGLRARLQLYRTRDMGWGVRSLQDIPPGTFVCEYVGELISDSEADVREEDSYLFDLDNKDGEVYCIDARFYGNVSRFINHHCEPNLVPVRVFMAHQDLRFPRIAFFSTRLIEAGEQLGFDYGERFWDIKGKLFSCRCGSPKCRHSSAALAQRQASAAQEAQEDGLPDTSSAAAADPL
# UniProt Q9NQZ7: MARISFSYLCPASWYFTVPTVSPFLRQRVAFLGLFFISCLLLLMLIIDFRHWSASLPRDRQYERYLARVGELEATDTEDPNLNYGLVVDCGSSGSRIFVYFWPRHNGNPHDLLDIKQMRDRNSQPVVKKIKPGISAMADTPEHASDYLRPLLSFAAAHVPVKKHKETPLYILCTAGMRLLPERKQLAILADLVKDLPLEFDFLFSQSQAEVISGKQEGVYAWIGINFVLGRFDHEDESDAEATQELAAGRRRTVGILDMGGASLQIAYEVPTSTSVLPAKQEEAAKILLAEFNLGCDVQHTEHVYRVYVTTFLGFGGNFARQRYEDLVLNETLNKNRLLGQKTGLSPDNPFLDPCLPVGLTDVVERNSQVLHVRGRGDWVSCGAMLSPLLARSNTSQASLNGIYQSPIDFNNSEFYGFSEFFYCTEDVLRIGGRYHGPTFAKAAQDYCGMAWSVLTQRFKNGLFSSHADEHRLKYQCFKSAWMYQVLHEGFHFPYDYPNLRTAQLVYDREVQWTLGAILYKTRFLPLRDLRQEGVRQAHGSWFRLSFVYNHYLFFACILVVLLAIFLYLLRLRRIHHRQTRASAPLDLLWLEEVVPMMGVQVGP
# UniProt P32519: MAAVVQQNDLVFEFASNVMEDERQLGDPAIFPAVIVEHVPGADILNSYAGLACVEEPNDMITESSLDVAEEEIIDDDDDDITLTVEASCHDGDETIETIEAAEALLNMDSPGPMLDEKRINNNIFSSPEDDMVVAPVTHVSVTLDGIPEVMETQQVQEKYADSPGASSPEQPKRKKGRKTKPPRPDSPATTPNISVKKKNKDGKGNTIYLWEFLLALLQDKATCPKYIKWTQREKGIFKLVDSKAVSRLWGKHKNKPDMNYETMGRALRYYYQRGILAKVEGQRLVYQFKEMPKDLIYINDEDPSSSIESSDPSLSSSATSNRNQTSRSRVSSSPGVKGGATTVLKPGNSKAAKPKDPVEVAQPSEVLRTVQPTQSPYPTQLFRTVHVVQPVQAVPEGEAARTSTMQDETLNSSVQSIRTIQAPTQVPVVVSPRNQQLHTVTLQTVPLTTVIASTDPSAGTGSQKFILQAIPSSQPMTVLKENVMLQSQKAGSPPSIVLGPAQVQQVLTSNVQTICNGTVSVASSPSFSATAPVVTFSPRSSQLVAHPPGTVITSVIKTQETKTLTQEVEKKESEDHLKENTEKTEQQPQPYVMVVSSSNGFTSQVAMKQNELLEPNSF
# UniProt Q5UCC4: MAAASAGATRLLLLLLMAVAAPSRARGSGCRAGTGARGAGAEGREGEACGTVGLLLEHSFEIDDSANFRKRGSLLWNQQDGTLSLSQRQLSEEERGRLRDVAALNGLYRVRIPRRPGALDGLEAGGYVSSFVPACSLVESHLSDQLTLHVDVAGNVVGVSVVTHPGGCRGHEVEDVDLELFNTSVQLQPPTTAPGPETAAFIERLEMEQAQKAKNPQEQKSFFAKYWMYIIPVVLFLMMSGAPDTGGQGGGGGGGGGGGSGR
# UniProt O75355: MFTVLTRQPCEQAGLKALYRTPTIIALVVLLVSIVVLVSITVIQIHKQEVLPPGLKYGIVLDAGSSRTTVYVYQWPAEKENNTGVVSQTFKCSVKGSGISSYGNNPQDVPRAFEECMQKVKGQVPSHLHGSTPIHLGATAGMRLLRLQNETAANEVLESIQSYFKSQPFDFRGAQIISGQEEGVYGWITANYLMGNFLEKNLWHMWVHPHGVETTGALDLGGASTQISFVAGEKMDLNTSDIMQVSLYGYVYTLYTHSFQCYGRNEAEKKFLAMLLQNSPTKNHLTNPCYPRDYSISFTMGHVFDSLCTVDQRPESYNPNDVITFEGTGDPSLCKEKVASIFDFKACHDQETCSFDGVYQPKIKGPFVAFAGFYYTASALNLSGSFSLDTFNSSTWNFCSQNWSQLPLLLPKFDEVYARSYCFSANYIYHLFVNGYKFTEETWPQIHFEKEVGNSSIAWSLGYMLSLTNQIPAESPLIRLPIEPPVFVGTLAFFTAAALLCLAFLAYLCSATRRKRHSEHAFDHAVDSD
# UniProt Q9Y6B2: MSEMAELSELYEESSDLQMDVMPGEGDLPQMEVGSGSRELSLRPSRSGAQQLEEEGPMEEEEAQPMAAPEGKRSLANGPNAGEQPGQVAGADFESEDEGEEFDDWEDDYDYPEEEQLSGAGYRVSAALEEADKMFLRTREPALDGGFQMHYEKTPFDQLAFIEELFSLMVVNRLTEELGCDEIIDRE
# UniProt Q14241: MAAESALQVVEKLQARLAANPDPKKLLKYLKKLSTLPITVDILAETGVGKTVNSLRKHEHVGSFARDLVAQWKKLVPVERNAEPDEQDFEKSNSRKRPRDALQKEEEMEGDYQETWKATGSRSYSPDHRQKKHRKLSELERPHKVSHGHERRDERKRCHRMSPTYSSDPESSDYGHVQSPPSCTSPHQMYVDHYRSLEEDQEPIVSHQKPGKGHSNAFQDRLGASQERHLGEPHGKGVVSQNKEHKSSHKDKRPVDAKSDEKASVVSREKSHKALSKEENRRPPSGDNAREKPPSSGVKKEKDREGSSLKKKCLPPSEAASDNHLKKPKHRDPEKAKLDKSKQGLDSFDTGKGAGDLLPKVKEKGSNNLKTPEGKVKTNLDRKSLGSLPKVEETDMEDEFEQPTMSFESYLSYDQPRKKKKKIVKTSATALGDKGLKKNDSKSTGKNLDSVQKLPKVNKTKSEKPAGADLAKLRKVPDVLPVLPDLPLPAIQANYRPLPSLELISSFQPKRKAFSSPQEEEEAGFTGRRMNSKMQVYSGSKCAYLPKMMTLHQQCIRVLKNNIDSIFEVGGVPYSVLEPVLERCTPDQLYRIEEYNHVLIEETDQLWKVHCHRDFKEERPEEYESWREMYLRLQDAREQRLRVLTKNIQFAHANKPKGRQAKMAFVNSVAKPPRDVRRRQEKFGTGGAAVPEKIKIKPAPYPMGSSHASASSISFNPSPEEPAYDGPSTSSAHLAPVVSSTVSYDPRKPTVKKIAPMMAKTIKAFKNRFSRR
# UniProt P55199: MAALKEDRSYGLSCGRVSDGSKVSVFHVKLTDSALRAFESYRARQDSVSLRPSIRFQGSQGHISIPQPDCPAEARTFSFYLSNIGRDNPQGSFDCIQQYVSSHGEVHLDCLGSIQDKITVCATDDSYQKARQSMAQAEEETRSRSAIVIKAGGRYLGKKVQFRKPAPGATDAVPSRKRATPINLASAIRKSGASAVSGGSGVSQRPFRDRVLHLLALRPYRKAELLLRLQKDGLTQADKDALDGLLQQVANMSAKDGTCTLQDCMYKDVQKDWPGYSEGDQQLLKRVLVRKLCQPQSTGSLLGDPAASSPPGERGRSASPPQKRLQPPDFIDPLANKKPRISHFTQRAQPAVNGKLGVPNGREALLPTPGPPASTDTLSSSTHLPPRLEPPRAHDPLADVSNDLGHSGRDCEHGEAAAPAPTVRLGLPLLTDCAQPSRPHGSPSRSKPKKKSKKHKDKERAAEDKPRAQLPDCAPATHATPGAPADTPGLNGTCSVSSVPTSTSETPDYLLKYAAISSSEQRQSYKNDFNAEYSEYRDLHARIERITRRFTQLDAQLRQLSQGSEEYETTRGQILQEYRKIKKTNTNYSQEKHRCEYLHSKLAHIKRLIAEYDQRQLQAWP
# UniProt Q9NZJ5: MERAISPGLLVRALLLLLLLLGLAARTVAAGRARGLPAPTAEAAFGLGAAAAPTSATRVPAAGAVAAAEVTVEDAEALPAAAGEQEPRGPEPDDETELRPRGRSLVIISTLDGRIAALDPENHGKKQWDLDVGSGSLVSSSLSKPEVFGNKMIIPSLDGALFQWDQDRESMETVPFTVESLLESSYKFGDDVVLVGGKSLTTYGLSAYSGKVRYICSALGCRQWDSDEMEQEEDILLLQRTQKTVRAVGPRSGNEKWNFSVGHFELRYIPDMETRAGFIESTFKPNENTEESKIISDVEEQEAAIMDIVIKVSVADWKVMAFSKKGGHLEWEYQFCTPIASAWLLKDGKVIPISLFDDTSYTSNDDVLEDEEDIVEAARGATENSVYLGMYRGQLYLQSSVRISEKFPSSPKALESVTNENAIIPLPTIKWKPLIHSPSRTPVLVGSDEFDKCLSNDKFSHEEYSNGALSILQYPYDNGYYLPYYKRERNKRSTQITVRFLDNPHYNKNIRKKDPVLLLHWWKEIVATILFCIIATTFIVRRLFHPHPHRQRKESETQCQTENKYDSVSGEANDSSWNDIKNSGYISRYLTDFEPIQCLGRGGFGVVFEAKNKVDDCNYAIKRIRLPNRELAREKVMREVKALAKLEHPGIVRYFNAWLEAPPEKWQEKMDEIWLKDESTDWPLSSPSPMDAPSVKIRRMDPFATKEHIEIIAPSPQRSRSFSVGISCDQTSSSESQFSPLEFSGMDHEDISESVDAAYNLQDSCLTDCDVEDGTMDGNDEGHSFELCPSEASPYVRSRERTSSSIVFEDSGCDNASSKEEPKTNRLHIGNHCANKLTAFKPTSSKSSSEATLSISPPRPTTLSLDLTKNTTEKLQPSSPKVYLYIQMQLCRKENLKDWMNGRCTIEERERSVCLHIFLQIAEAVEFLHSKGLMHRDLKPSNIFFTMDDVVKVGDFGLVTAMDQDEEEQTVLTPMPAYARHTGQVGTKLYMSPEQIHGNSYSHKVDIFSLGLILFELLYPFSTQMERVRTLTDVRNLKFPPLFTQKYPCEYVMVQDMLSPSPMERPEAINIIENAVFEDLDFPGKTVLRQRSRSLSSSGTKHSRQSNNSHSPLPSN
# UniProt Q9GZV4: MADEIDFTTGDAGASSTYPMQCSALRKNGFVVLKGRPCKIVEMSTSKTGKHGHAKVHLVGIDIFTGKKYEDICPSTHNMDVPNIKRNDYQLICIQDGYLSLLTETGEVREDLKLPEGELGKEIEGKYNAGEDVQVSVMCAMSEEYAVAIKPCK
# Some of the results follow.
# Legend:
# Assay in all cases: log2 fold change, soluble protein after heating vs DMSO (PISA); higher = thermal stabilisation; K562 cells, 10 uM, 30 min; active = over 0.2 and 3.5 SD of the protein, either way, in both replicates (recomputed)
# [1] = compound: COC1=CC=C(C=C1)CN2C=CC3=C2C=C(C=C3)C(=O)NO
# Procedure, shortened: (§1)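 K562 cells at 2×10^6 cells/mL were given 10 μM compound for 30 min. Aliquots then went through 3 min of heating across 48°C-58°C, were pooled, and were extracted in PBS with 0.5% NP-40 at 4°C, and the supernatant after 21,000xg for 90 min was quantified by TMTpro 16plex LC-MS/MS with channel sums equalised. Thermal stability relative to control samples, from duplicates, is given as log2 fold change.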
# [2] = compound: CON(C)C(=O)N1N=C(c2cc(F)ccc2F)S[C@@]1(CCCN)c1ccccc1 [filanesib]
# Procedure, shortened: as §1
# [3] = compound: CO[C@H]1C[C@@H]2CC[C@@H](C)[C@@](O)(O2)C(=O)C(=O)N2CCCC[C@H]2C(=O)O[C@H]([C@H](C)C[C@@H]2CC[C@H](n3cnnn3)[C@H](OC)C2)CC(=O)[C@H](C)/C=C(\C)[C@@H](O)[C@@H](OC)C(=O)[C@H](C)C[C@H](C)/C=C/C=C/C=C/1C [zotarolimus]
# Procedure, shortened: as §1
# [4] = compound: COc1cc(C(=O)O)ccc1NC(=O)[C@@H]1N[C@@H](CC(C)(C)C)[C@](C#N)(c2ccc(Cl)cc2F)[C@H]1c1cccc(Cl)c1F [idasanutlin]
# Procedure, shortened: as §1
# [5] = compound: COc1cc(Nc2ncc3c(n2)-c2ccc(Cl)cc2C(c2c(F)cccc2OC)=NC3)ccc1C(=O)O [alisertib]
# Procedure, shortened: as §1
# [6] = compound: COc1cc2nc(-c3cc(F)ccc3O)nc(N[C@@H]3CNC[C@H]3C(C)(C)O)c2cc1OC
# Procedure, shortened: as §1
# [7] = compound: COc1cc2ncnc(Nc3ccc(F)c(Cl)c3)c2cc1OCCCN1CCOCC1 [gefitinib]
# Procedure, shortened: as §1
# [8] = compound: COc1cccc2cc(-c3nc([C@H]4CC[C@H](C(=O)O)CC4)n4ncnc(N)c34)[nH]c12
# Procedure, shortened: as §1
# [9] = compound: CS(=O)(=O)CCNCc1ccc(-c2ccc3ncnc(Nc4ccc(OCc5cccc(F)c5)c(Cl)c4)c3c2)o1 [lapatinib]
# Procedure, shortened: as §1
# [10] = compound: CS(=O)(=O)N1CCN(Cc2cc3nc(-c4cccc5[nH]ncc45)nc(N4CCOCC4)c3s2)CC1 [pictilisib]
# Procedure, shortened: as §1
Target,log2 fold change [1],log2 fold change [2],log2 fold change [3],log2 fold change [4],log2 fold change [5],log2 fold change [6],log2 fold change [7],log2 fold change [8],log2 fold change [9],log2 fold change [10]
ENO2 (UniProt P09104),inactive: 0.043,inactive: -0.026,inactive: -0.055,inactive: -0.001,inactive: -0.056,inactive: -0.02,inactive: -0.01,inactive: 0.028,inactive: 0.007,inactive: 0.013
ELMO1 (UniProt Q92556),inactive: -0.108,inactive: 0.072,–,–,inactive: 0.212,–,inactive: 0.017,inactive: 0.08,–,–
EHMT1 (UniProt Q9H9B1),inactive: 0.019,inactive: 0.041,inactive: 0.024,inactive: 0.046,inactive: 0.193,inactive: -0.106,–,inactive: -0.082,inactive: 0.006,inactive: 0.226
EHBP1L1 (UniProt Q8N3D4),inactive: 0.054,inactive: 0.147,inactive: 0.065,inactive: -0.021,inactive: -0.098,inactive: 0.119,inactive: -0.009,inactive: -0.026,inactive: 0.03,inactive: 0.217
EIF5B (UniProt O60841),inactive: -0.031,inactive: 0.05,inactive: 0.046,inactive: 0.022,inactive: -0.045,inactive: 0.024,inactive: -0.003,inactive: -0.082,inactive: 0.037,inactive: -0.044
ENTPD7 (UniProt Q9NQZ7),inactive: -0.031,inactive: -0.268,–,–,inactive: -0.054,inactive: 0.06,inactive: -0.026,inactive: 0.03,inactive: 0.099,–
EIF2S3 (UniProt P41091),inactive: -0.028,inactive: 0.119,inactive: 0,inactive: 0.07,inactive: -0.068,inactive: 0.002,inactive: -0.033,inactive: -0.07,inactive: 0.004,inactive: -0.027
ENOPH1 (UniProt Q9UHY7),inactive: 0.072,inactive: -0.047,inactive: 0.057,inactive: -0.058,inactive: -0.018,inactive: 0.047,inactive: 0.003,inactive: -0.026,inactive: 0.04,inactive: 0.11
ELF1 (UniProt P32519),inactive: 0.001,inactive: 0.028,inactive: -0.019,inactive: 0.089,–,inactive: -0.297,inactive: 0.01,–,inactive: -0.12,–
EMC10 (UniProt Q5UCC4),inactive: -0.052,inactive: -0.034,inactive: 0.023,inactive: -0.025,inactive: -0.135,inactive: 0.033,inactive: 0.048,inactive: 0.063,inactive: 0,inactive: -0.008
ELAC1 (UniProt Q9H777),inactive: 0.022,inactive: 0.083,inactive: -0.06,inactive: 0.122,–,inactive: 0.06,inactive: 0.112,–,inactive: -0.009,inactive: 0.049
EFEMP1 (UniProt Q12805),inactive: 0.048,inactive: -0.047,inactive: -0.314,inactive: 0.155,–,inactive: -0.071,–,–,inactive: -0.104,inactive: -0.329
ELOVL7 (UniProt A1L3X0),–,–,inactive: 0.012,inactive: -0.118,–,–,–,–,–,–
EFR3A (UniProt Q14156),–,inactive: 0.062,–,–,inactive: -0.036,–,inactive: 0.104,inactive: -0.022,–,–
EGFL7 (UniProt Q9UHF1),–,inactive: 0.069,–,inactive: 0.17,–,–,–,–,–,inactive: 0.033
"EPB41, A0A2R8Y6D0",–,inactive: 0.164,inactive: -0.013,inactive: 0.122,inactive: 0.011,inactive: -0.107,inactive: 0,inactive: -0.021,inactive: 0.029,inactive: 0.192
ENTPD3 (UniProt O75355),inactive: 0.779,–,–,–,–,inactive: -0.021,–,–,inactive: 0.073,–
ENAH (UniProt Q8N8S7),–,–,–,–,–,–,–,–,–,inactive: 0.114
EHBP1 (UniProt Q8NDI1),–,–,inactive: -0.02,inactive: 0.031,inactive: 0.025,–,–,inactive: 0.086,–,inactive: 0.057
ELK1 (UniProt P19419),inactive: 0.16,–,–,–,–,–,–,–,–,inactive: -0.226
ENKD1 (UniProt Q9H0I2),–,–,–,–,–,inactive: 0.057,–,–,inactive: -0.02,inactive: -0.016
EEF1D isoform 3 (UniProt P29692),–,–,–,–,inactive: -0.067,–,–,inactive: -0.105,–,–
EIF4H isoform 2 (UniProt Q15056),–,–,–,inactive: 0.355,–,–,–,–,–,inactive: 0.041

# Look-ups from the list.
# EIF2S3 (UniProt P41091) | log2 fold change [8]: inactive: -0.07
# ELAC1 (UniProt Q9H777) | log2 fold change [7]: inactive: 0.112
# EPB41, A0A2R8Y6D0 | log2 fold change [5]: inactive: 0.011

# Whole records, quoted from the list. Order of values: log2 fold change [1] | log2 fold change [2] | log2 fold change [3] | log2 fold change [4] | log2 fold change [5] | log2 fold change [6] | log2 fold change [7] | log2 fold change [8] | log2 fold change [9] | log2 fold change [10]
# ENOPH1 (UniProt Q9UHY7) is listed as inactive: 0.072 | inactive: -0.047 | inactive: 0.057 | inactive: -0.058 | inactive: -0.018 | inactive: 0.047 | inactive: 0.003 | inactive: -0.026 | inactive: 0.04 | inactive: 0.11
# ENKD1 (UniProt Q9H0I2) is listed as – | – | – | – | – | inactive: 0.057 | – | – | inactive: -0.02 | inactive: -0.016

# Carrying on:

Target,log2 fold change [1],log2 fold change [2],log2 fold change [3],log2 fold change [4],log2 fold change [5],log2 fold change [6],log2 fold change [7],log2 fold change [8],log2 fold change [9],log2 fold change [10]
ELP5 isoform 2 (UniProt Q8TE02),–,–,–,–,–,inactive: -0.105,–,–,inactive: 0.245,–
EIF2B4 (UniProt Q9UI10),inactive: -0.016,–,inactive: 0.127,inactive: 0.03,inactive: -0.147,inactive: 0.053,–,inactive: 0.01,inactive: 0.111,inactive: -0.25
EPB41L1 (UniProt Q9H4G0),inactive: -0.049,–,inactive: -0.085,inactive: 0.106,inactive: -0.122,inactive: 0.106,inactive: 0.034,inactive: 0.008,inactive: -0.003,inactive: -0.006
EID1 (UniProt Q9Y6B2),–,inactive: 0.119,–,–,inactive: 0.024,inactive: 0.015,inactive: -0.031,inactive: -0.239,inactive: -0.097,inactive: 0.3
EIF4B (UniProt F8VP89),inactive: -0.194,–,inactive: -0.027,inactive: 0.186,inactive: 0.012,inactive: 0.47,inactive: 0.064,inactive: 0.003,inactive: -0.433,inactive: 0.19
EMC9 (UniProt Q9Y3B6),–,–,–,–,–,–,inactive: 0.062,–,–,–
ELAVL4 (UniProt P26378),inactive: -0.016,–,inactive: 0.04,–,–,–,inactive: -0.044,–,–,inactive: -0.038
ENTPD6 (UniProt O75354),–,inactive: 0.227,inactive: 0.104,inactive: 0.025,inactive: -0.176,inactive: -0.1,inactive: -0.033,inactive: -0.038,inactive: 0.127,inactive: 0.099
EPB41 isoform 4 (UniProt P11171),–,–,–,–,inactive: 0.013,inactive: -0.032,–,inactive: -0.051,inactive: 0.173,inactive: -0.018
ENTR1 (UniProt Q96C92),–,–,–,–,–,inactive: -0.065,–,–,inactive: 0.075,–
EFCAB2 (UniProt Q5VUJ9),–,–,–,inactive: 0.14,–,–,–,–,–,inactive: 0.061
EFHD1 (UniProt Q9BUP0),–,inactive: -0.05,inactive: -0.138,–,–,–,inactive: -0.18,–,–,inactive: -0.06
EIF4G1 (UniProt Q04637),–,–,inactive: -0.118,inactive: 0.071,–,–,–,–,–,inactive: -0.307
ELOA (UniProt Q14241),–,–,–,–,inactive: -0.001,–,–,inactive: -0.214,–,inactive: 0.036
EEF2K (UniProt O00418),–,–,inactive: 0.021,–,inactive: 0.031,inactive: -0.062,–,active: -0.896,inactive: -0.017,inactive: -0.014
EGR1 (UniProt P18146),–,inactive: 0.463,inactive: 0.125,inactive: 0.164,inactive: -0.54,inactive: -0.24,inactive: -0.183,inactive: 0.079,inactive: 0.067,inactive: -0.362
EP400 (UniProt Q96L91),–,inactive: -0.021,inactive: -0.118,–,inactive: 0,–,–,inactive: 0.269,–,inactive: 0.032
ELL (UniProt P55199),–,inactive: 0.065,inactive: -0.016,inactive: 0.042,–,–,inactive: 0.094,–,–,inactive: -0.015
"EPB41, A0A2R8Y783",inactive: -0.195,–,–,–,–,–,inactive: 0.079,–,–,–
EEF1AKMT2 (UniProt Q5JPI9),–,inactive: 0.089,–,–,inactive: -0.152,–,–,inactive: 0.033,–,–
EIF2AK3 (UniProt Q9NZJ5),inactive: 0.135,–,inactive: -0.06,inactive: -0.039,inactive: -0.141,inactive: 0.201,inactive: -0.161,inactive: 0.078,inactive: 0.146,inactive: -0.233
EIF5A2 (UniProt Q9GZV4),–,–,inactive: 0.036,inactive: 0.048,inactive: 0.05,–,–,inactive: 0.02,–,–
ELOVL5 isoform 2 (UniProt Q9NYP7),–,inactive: -0.157,inactive: -0.041,inactive: -0.224,inactive: -0.026,inactive: -0.05,inactive: -0.142,inactive: 0,inactive: 0.094,inactive: 0
